Assay results: PMC9404778
For at least one entry, the source does not settle the construct or the ends of the probe. For part of these data: Negatives hold for the conditions tested.

Tests used:
[1] = target: T1, His6-DasR (Streptomyces roseosporus NRRL11379) (UniProt A0A919BEL1); test: DNase I footprinting; conditions: recombinant protein; protein details: His6 (pET-28a); label: 5' FAM; probe letters rebuilt from the primers and the genome
[2] = target: T1, His6-DasR (Streptomyces roseosporus NRRL11379); test: EMSA; conditions: EMSA: 20 uL, 1 ug poly[d(I-C)], 0.15 nM DIG-labeled probe, Roche DIG gel shift kit 2nd gen, pH and temperature not stated, recombinant protein, protein details: His6 (pET-28a), probe letters rebuilt from the primers and the genome
[3] = target: T1, His6-DasR (Streptomyces roseosporus NRRL11379); test: competition with a labelled probe; conditions: 4.5 uM DasR, EMSA: 20 uL, 1 ug poly[d(I-C)], 0.15 nM DIG-labeled probe, Roche DIG gel shift kit 2nd gen, pH and temperature not stated, recombinant protein, protein details: His6 (pET-28a), probe letters rebuilt from the primers and the genome
[4] = 1 and 4.5 uM DasR, label: 3' DIG

ACCCGCCTTCCCTGACCCGGACACGCCATGAGGCCGCGGCCGCGAGGGAGCGCACCGGCGCGGTTGTCAGAGAGCGGTTGTGCGCCCGGCGTGACCGGATACAGCACACACAACCGATGGTTTTCAGCCAACTTCACCCGGGGGGTGACCCCTTCGCGGGATGGCCGGACAACCCACCGCCCACCAGGCAGGAACGGACCGCGCGGTACGCTTTCACCCGACGCGGACGGGCCACGTTGGCGAAGGGCACTTCCCTGTGCGCTTCGCAGGTGAAACGCTTCGTGATCGAACGCTTCACGCCACGTTTCCTTATCGACATTGAGCTGGTAGGGGAAGGTGTCACGGCGAGACCACGCGACGCAGTAGATTCGATCTTGAAAATCGGGGGCTGGGGAACCGTGCGAAACCGAGGGGAAACGTGCAGGAGCGGCAGGCCCGTAAGGACCGGAAAGACGCGAACACCGAGGGGGGCTTAGCGTCATGAGCCAGG (double strand) [adpAp footprinting fragment]
binding result [1]: binds

AGGCGCTGCGGATCGATGCGGGGTTCCGCGCTGAGCCTCAACGCGGCGGGCCAGAGCCTCGGCGTCTTCGCCGGCGCCGCCCTCGGCGGAGCGGGACTCGGGCTCGCGGGGTACCCGGGGATCGCCGCCGCGTTCGGGCTGCTCGTCGCCGTGGCCGTGGTGGCCGGGCTCCTGGTGCTGCGCTCCGAGGACGAGATCCCCGGTTCGGCGTAGCCGAAGCCGACGGGGCGCCCGCCCAAGGTCGCGGGCACCCCACGGACGCACATCCACCGTTCATCAACGCTCCGAAACCGGAAGGCCGATCCACATGTCACCGCCCGCGCCACCCGAGGCGCTGCAACGTCCCGCGCCCACCGCGCAAGAGCCGGTTCGGACCG (double strand) [dptP-M EMSA probe]
binding result [2, 4]: no binding

ATGGCCGGACAACCCACCGCCCACCAGGCAGGAACGGACCGCGCGGTACGCTTTCACCCGACGCGGACGGGCCACGTTGGCGAAGGGCACTTCCCTGTGCGCTTCGCAGGTGAAACGCTTCGTGATCGAACGCTTCACGCCACGTTTCCTTATCGACATTGAGCTGGTAGGGGAAGGTGTCACGGCGAGACCACGCGACGCAGTAGATTCGATCTTGAAAATCGGGGGCTGGGGAACCGTGCGAAACCGAGGGGAAACGTGCAGGAGCGGCAGGCCCGTAAGGACCGGAAAGACGCGAACACCGAGGGGGGCTTAGCGTCATGAGCCAG (double strand) [adpAp EMSA probe]
binding result ([2]; 1-4.5 uM DasR, label: 3' DIG): binds

CGCACCGGACGCCCTGACCCCTCCCCACCACCTGCCCAGTGTGACGTTTGCGCAGATGAGAACGTGCGTAAACGCCGCATACGCAAAGATCGTCCCTGCCGGGACCCATTGACGTTCGCAGGGGCGTGGAACATACTGGCGATCAAGTCGCACAGGAACCAACAGGCACACCAACCACAGGCGTTACAGGGGGGGTTGGTGTTTCGTCCATATCAAGTGGTTTGGTCCGCCGAAGCGGTTGGACCTCACATGACGGCAACAGGGCATTCGCACATGCCTGATGACGGGACGGCACACCTCACGCAGCGGCGACCGGTCGCAAGCCGGACGCGGAATGACTCCCTGCCTTACAGGTATGCGAGCGCGGATGCGTCGTTCGACCGGAGTCAGGAGGGGGAGTGCCTGCCGTGAGTGAGAGCCGCTGTGCC (double strand) [dptEp footprinting fragment]
binding result [1]: binds

CGTGCAGGAAGGTGTTCGCACACTTCAGCCCCTGGCCGATTTTCGGTCAACGGTAGCGAAATGAATCGATCAGGATCGATAGGAAAGCAAAGCTCAACGAGCTCCGGAGAGGCCCCGCTCCCGATCCGAGAGCCCTCCCGCTAGCTCGCATTCCCGGCAAAGCGGGTAGCGCCTTCCTGGATCGGGGGCGCCTGCGATAGAACAGACGACATCCACGAGAAGTCGAAGAGAAGTCGAACGACACAGTTCGATCAGAAGGAAAAGGAGAGGCCGGGATGGCACTCGCATCGGAACGG (double strand) [dptR2p EMSA probe]
binding result [2, 4]: no binding

GAAGAGGCGGAGGATGCGGCGCACCTCGGCGGGCCGCCGGTCGGCGGCGGGGCGGGCATCGGGCGGGGGCGTCCACGTGGGTTCGTCGGGTTTCATGGGCTCCTTCGTCGGGCGTGAGGCGGGGCCGGGCAGTCCCGGTCCCGCACAGTGAGAGCCTAGCTCATTGTTACCTATGCTCACAATGAACAAGGTCCTGATATTGTTCCCGTATGGACGCCCCGGATTCCCCCGACTCCCCTGATTCCCCCGAGTCCCGGGACTCTCGCGATTCCCGGGA (double strand) [dptR3p EMSA probe]
binding result [2, 4]: no binding

GCGCGGTCAACAAGATTCTTCGCGATTTCTTCCGAACGAGCTGAAAGGCACGACGACCTTGTCCAGTACCGGCAGAGAGGGGCCCGTCGTGACCGGCGAAACCCGCACCACCACCTACCTCCCCGGCATGACCGTGCACGACTACCACGTGACCGTCAAGG (double strand) [dptIp EMSA probe]
binding result [2, 4]: no binding

GGCGTGGAACATACTGGCGATCAAGTCGCACAGGAACCAACAGGCACACCAACCACAGGCGTTACAGGGGGGGTTGGTGTTTCGTCCATATCAAGTGGTTTGGTCCGCCGAAGCGGTTGGACCTCACATGACGGCAACAGGGCATTCGCACATGCCTGATGACGGGACGGCACACCTCACGCAGCGGCGACCGGTCGCAAGCCGGACGCGGAATGACTCCCTGCCTTACAGGTATGCGAGCGCGGATGCGTCGTTCGACCGGAGTCAGGAGGGGGAGTGCCTGCCGTGAGTGAGAGCCGCTGTGC (double strand) [dptEp EMSA probe]
binding result ([2]; 1-4.5 uM DasR, label: 3' DIG): binds | binding result ([3]; ~100-fold unlabeled dptEp abolished shift, label: 3' DIG): binds

GTCCATCTCTCGCGGATCCCCTCAGGTGCGGTCGGCCAACTGGGGCATCAGTGCCTGGACGAACTCGTTGAGTGTGGGGACGCTCCACAGCAGCTCCGGGTCGACCTCGATCCCGTAGCGGTCCTCGACCTGCGCGCAGAGGGCAACTCCGGAGACGGAGTCGAGGCCATGGTCGGTCAGGGGTGCGTCACCGGCGATCCGGTCGGGTGTCTCGTTCACGAACTCGGCGATCTGTCCGGTGATCCACGCGGTGACCTCG (double strand) [dptAp EMSA probe]
binding result [2, 4]: no binding

TTGATGACCTCGACCATGTGCACCGGGATACGGATGGTGCGGGCCTGGTCGGCCATCGCGCGGGTGATCGCCTGACGGATCCACCAGGTGGCGTACGTGGAGAACTTGTAGCCCTTGG (double strand) [hrdB probe]
binding result ([2]; 4.5 uM DasR, label: 3' DIG (unlabeled as competitor)): no binding | binding result ([3]; ~100-fold unlabeled hrdB vs dptEp probe, label: 3' DIG (unlabeled as competitor)): no binding
